These are yes or no findings as the source states them, for the method shown. Binding seen in cells or lysates may run through a third protein. Some entries that bind do so weakly or less than the wild type.

Sequences of proteins named here, by UniProt entry; tags and fusion partners are left off.
UniProt O60934: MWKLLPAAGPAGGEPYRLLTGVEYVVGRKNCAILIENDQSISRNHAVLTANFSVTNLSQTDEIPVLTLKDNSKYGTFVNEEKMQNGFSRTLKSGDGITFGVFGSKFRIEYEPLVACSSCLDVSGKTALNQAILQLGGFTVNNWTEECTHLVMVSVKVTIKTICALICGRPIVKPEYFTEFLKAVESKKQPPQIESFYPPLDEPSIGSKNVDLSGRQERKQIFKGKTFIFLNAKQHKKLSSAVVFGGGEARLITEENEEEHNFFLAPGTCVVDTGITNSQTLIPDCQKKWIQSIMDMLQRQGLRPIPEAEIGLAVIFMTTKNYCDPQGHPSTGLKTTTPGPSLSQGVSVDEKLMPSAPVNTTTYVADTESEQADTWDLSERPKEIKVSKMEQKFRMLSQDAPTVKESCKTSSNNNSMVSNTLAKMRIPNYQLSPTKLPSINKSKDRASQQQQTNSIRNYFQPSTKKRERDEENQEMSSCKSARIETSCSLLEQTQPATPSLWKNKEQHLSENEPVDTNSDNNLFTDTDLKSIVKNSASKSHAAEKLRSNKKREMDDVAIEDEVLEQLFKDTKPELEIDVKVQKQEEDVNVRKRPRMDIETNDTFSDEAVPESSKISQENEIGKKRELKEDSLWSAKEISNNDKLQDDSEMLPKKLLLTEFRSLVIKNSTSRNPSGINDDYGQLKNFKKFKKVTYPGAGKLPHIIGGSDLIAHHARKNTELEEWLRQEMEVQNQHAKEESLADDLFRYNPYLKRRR
UniProt P23497: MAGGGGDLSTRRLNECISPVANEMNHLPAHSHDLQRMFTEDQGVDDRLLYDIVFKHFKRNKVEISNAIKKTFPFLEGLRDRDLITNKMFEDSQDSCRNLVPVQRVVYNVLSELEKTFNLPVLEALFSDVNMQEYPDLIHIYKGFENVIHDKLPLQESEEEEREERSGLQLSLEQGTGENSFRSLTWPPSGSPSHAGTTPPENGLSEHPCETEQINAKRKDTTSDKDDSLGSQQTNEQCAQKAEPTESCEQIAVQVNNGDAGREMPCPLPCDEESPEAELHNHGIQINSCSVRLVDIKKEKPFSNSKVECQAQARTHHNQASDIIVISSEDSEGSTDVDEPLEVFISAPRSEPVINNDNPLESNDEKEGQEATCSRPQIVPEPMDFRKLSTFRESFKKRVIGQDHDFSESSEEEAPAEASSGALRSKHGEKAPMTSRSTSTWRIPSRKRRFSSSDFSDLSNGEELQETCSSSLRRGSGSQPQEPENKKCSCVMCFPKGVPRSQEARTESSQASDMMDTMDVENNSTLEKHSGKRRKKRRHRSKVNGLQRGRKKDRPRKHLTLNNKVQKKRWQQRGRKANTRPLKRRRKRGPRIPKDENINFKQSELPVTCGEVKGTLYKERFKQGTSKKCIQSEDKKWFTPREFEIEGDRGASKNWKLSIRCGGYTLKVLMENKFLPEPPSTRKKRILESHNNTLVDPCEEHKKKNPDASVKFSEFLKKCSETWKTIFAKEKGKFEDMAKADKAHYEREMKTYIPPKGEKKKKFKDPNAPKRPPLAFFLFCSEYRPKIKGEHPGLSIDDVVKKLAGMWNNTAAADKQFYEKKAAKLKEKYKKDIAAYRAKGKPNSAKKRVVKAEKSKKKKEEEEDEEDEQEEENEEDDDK
UniProt P09874: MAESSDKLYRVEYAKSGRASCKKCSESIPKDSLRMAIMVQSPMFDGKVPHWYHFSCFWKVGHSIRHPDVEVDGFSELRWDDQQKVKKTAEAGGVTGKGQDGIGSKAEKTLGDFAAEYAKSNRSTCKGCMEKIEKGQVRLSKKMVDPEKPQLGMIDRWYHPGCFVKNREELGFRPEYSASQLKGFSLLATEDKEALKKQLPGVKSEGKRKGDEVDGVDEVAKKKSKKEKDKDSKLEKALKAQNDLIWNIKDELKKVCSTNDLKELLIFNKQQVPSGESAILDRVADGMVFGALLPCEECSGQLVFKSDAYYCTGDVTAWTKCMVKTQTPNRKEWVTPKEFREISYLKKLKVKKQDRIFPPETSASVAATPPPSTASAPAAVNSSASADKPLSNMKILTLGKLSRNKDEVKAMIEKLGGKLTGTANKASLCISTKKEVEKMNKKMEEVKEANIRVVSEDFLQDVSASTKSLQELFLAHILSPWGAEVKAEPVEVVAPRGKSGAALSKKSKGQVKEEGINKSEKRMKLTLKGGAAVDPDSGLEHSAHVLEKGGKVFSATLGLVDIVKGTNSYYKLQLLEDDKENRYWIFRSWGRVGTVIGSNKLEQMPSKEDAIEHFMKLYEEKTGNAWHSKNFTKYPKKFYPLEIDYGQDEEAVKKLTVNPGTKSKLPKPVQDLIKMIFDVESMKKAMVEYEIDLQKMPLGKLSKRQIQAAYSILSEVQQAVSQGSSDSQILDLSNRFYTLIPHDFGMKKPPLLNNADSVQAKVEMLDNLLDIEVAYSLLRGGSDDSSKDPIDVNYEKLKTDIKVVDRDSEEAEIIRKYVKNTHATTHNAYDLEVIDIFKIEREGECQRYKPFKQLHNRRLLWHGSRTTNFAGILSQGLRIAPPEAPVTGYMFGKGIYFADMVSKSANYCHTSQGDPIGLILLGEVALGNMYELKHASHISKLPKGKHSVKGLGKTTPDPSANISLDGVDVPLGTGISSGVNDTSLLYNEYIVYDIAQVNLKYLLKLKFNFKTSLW
UniProt O96017: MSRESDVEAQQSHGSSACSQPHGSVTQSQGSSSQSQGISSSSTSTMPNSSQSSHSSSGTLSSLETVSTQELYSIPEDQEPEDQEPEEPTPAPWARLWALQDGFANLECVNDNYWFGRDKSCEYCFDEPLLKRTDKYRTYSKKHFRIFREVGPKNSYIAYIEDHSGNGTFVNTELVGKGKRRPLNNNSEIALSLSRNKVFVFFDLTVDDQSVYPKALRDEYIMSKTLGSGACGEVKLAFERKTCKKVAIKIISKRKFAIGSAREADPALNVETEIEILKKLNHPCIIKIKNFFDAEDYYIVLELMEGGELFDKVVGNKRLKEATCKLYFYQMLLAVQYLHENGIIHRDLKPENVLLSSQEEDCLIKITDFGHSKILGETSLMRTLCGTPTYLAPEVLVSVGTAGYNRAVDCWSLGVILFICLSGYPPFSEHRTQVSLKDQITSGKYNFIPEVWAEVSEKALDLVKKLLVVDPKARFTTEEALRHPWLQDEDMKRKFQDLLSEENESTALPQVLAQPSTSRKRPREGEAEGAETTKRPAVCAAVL

The record followed here is article PMC4259352.

Assay [1] addresses Strep-tagged full-length nibrin (NBN) (human) (UniProt O60934). Description: pull-down; Strep-Tactin chromatography eluates (30 µg) of HEK293 cells expressing Strep-tagged NBN, p26 or p70, untreated or lysed 30 min after 2 Gy of X-rays, analysed by Western blot. (In western blotting, separated proteins are transferred to a membrane and probed.)
For assay [2], the target named is T1, MRE11 (human (endogenous in HEK293)) (UniProt P49959).
T1 sequence: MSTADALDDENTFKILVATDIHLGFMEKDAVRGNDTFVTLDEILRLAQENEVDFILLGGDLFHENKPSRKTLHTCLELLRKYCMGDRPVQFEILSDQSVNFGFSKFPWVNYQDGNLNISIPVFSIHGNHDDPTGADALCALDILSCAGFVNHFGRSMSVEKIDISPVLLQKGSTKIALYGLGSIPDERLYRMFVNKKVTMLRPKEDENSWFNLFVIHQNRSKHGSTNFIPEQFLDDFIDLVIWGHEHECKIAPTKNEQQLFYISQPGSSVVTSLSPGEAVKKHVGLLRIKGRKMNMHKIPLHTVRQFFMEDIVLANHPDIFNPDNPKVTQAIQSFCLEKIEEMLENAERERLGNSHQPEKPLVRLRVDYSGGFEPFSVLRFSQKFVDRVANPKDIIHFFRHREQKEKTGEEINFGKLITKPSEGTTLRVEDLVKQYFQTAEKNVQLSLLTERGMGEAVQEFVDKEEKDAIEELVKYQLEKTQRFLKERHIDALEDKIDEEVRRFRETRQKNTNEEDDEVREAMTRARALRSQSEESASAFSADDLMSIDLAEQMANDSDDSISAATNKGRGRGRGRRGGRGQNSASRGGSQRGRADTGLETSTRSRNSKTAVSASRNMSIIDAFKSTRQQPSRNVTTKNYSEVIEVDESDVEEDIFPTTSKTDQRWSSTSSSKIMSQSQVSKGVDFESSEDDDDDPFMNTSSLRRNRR
Description: condition: only cells not irradiated (basal conditions); co-IP; as a3 but cells not irradiated (basal conditions): immunoprecipitated with anti-MRE11, blotted with anti-Strep-tag and anti-PARP1.

For assay [3], the target named is T1, MRE11 (human (endogenous in HEK293)). Description: co-IP; protein eluates of HEK293 cells transfected with Strep-tagged full length NBN or p26, harvested 0.5 h after 2 Gy of X-rays (NBN also in basal conditions), immunoprecipitated with anti-MRE11, blotted with anti-Strep-tag and anti-PARP1.

For “Hsp89-alpha-delta-N (from UniProt P07900 1-732)”, the binding entry in assay [1] is “binds”.
On to “nuclear dots-associated protein SP100 (from UniProt P23497 1-879)”, for which, in assay [1], the binding entry is recorded as “binds”.
As for “Poly(ADP-ribose) polymerase (from UniProt P09874 1-1014)”, the binding result in assay [2] is reported as “no binding”; in assay [3] it was “binds”.
With “pThr68-CHEK2 (from UniProt O96017 1-543)”, the binding result in assay [1] was “binds”.
On to CHEK2 (from UniProt O96017 1-543), for which the binding entry in assay [1] is listed as “binds”.
